Measurements reported in PubChem BioAssay AID1224830 (NIAID, 2016)
Here is one part, drawn at random, of about 18,000 reagents tested. Of all reagents, about 2,900 (16%) got an active call. 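Calls are made per well; low scores hint the gene aids the LPS response, high scores that it dampens it.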 Unmarked entries are inactive. Repeated entries: four replicate wells of each siRNA pool.

Aim: 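Genes whose knock-down alters the TNF-alpha reporter response to LPS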 (primary screen)
Cell system: human THP-1 monocytic leukaemia cells, TNF dual-luciferase reporter clone, PMA-differentiated to macrophage-like cells
Knock-down reagent: siRNA pool against human genes, 50 nM
Time to read-out: LPS for 4 h, given about 3 days after siRNA transfection
Challenge: bacterial LPS (TLR4 ligand), 10 ng/ml
Measured: 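TNF firefly reporter luminescence divided by renilla, normalised to the plate median, then turned into a robust z-score for each replicate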
Scale: TNF reporter robust z-score: higher = stronger TNF reporter response to LPS
Rule for the call: 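Each well counts as active if its z-score is over 2.8 or under -1.5; controls are left without a call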

no.	Gene	TNF reporter robust z-score
1	CETN1 (centrin 1)	0.45
2	CETN1 (centrin 1)	0.03
3	CETN1 (centrin 1)	-0.5
4	CETN1 (centrin 1)	1.54
5	NOL9 (nucleolar protein 9)	0.48
6	NOL9 (nucleolar protein 9)	-0.33
7	NOL9 (nucleolar protein 9)	0.17
8	NOL9 (nucleolar protein 9)	0.44
9	PGLYRP2 (peptidoglycan recognition protein 2)	-0.45
10	PGLYRP2 (peptidoglycan recognition protein 2)	0.18
11	PGLYRP2 (peptidoglycan recognition protein 2)	-1.26
12	PGLYRP2 (peptidoglycan recognition protein 2)	0.24
13	ZCCHC8 (zinc finger CCHC-type containing 8)	0.45
14	ZCCHC8 (zinc finger CCHC-type containing 8)	0.71
15	ZCCHC8 (zinc finger CCHC-type containing 8)	0.84
16	ZCCHC8 (zinc finger CCHC-type containing 8)	0.76
17	DHCR24 (24-dehydrocholesterol reductase)	0.12
18	DHCR24 (24-dehydrocholesterol reductase)	-0.17
19	DHCR24 (24-dehydrocholesterol reductase)	-0.02
20	DHCR24 (24-dehydrocholesterol reductase)	0.86
21	ENTHD1 (ENTH domain containing 1)	-0.49
22	ENTHD1 (ENTH domain containing 1)	-0.68
23	ENTHD1 (ENTH domain containing 1)	0.66
24	ENTHD1 (ENTH domain containing 1)	0.02
25	CTSV (cathepsin V)	0.04
26	CTSV (cathepsin V)	-0.77
27	CTSV (cathepsin V)	-0.84
28	CTSV (cathepsin V)	0.83
29	CRTC3 (CREB regulated transcription coactivator 3)	3.23 (active)
30	CRTC3 (CREB regulated transcription coactivator 3)	4.95 (active)
31	CRTC3 (CREB regulated transcription coactivator 3)	0.57
32	CRTC3 (CREB regulated transcription coactivator 3)	0.77
33	UHMK1 (U2AF homology motif kinase 1)	0.5
34	UHMK1 (U2AF homology motif kinase 1)	0.44
35	UHMK1 (U2AF homology motif kinase 1)	0.84
36	UHMK1 (U2AF homology motif kinase 1)	1.41
37	HOXA4 (homeobox A4)	1.18
38	HOXA4 (homeobox A4)	1.12
39	HOXA4 (homeobox A4)	0.7
40	HOXA4 (homeobox A4)	0.39
41	SPR (sepiapterin reductase)	-1.31
42	SPR (sepiapterin reductase)	-1.48
43	SPR (sepiapterin reductase)	-0.62
44	SPR (sepiapterin reductase)	-1.27
45	SEMA3A (semaphorin 3A)	0.58
46	SEMA3A (semaphorin 3A)	1.48
47	SEMA3A (semaphorin 3A)	0.01
48	SEMA3A (semaphorin 3A)	0.1
49	CARMIL3 (capping protein regulator and myosin 1 linker 3)	-0.56
50	CARMIL3 (capping protein regulator and myosin 1 linker 3)	-0.5
51	CARMIL3 (capping protein regulator and myosin 1 linker 3)	-1.05
52	CARMIL3 (capping protein regulator and myosin 1 linker 3)	-0.55
53	LPXN (leupaxin)	-2.33 (active)
54	LPXN (leupaxin)	0.12
55	LPXN (leupaxin)	-1.05
56	LPXN (leupaxin)	-0.35
57	MSC (musculin)	-0.93
58	MSC (musculin)	-0.36
59	MSC (musculin)	-0.6
60	MSC (musculin)	-0.87
61	KIF13A (kinesin family member 13A)	-0.93
62	KIF13A (kinesin family member 13A)	-0.81
63	KIF13A (kinesin family member 13A)	-1.06
64	KIF13A (kinesin family member 13A)	0.43
65	SLIT3 (slit guidance ligand 3)	2.74
66	SLIT3 (slit guidance ligand 3)	0.52
67	SLIT3 (slit guidance ligand 3)	1.12
68	SLIT3 (slit guidance ligand 3)	2.11
69	TLR9 (toll like receptor 9)	0.71
70	TLR9 (toll like receptor 9)	3.12 (active)
71	TLR9 (toll like receptor 9)	2.55
72	TLR9 (toll like receptor 9)	2.72
73	PNPLA1 (patatin like domain 1, omega-hydroxyceramide transacylase)	-0.38
74	PNPLA1 (patatin like domain 1, omega-hydroxyceramide transacylase)	-0.2
75	PNPLA1 (patatin like domain 1, omega-hydroxyceramide transacylase)	-0.02
76	PNPLA1 (patatin like domain 1, omega-hydroxyceramide transacylase)	1.26

12 entries from above, reformatted:
Gene | TNF reporter robust z-score
HOXA4 (homeobox A4) | 1.12
HOXA4 (homeobox A4) | 0.7
HOXA4 (homeobox A4) | 0.39
SPR (sepiapterin reductase) | -1.31
SPR (sepiapterin reductase) | -1.48
SPR (sepiapterin reductase) | -0.62
SPR (sepiapterin reductase) | -1.27
SEMA3A (semaphorin 3A) | 0.58
SEMA3A (semaphorin 3A) | 1.48
SEMA3A (semaphorin 3A) | 0.01
SEMA3A (semaphorin 3A) | 0.1
CARMIL3 (capping protein regulator and myosin 1 linker 3) | -0.56
